From PubChem BioAssay AID248 (DTP/NCI, 2004)
The list does not hold the whole screen: it is rich in T/C values a quarter to a half above the control, in often repeated tests (any T/C) and in doses without a T/C. Other doses and runs of a compound stand elsewhere. T/C: endpoint of the treated group in % of that of the vehicle group. Some doses have a count of surviving animals in place of a T/C: the source files T/C as zero there, which appears to mark a toxic dose or a test without result, not a measured value. Some doses without a T/C left all or most animals alive at the check, yet need not have been tolerated: the source hardly ever lists a survival T/C far under the control, and the zero likely stands for such cases as well. Counts of survivors are from the toxicity check (mostly the fifth day) where no day follows; animals may have died later. Schedule codes are those of the source, read here as Q, the interval in days (D) or hours (H), X, the number of doses. Some schedule codes hold Z or #, which are not explained here. Some entries hold several experiments; the values are given in rising order. Where survival is the endpoint, this PubChem deposit counts one and a half times the control or more as active, and values a quarter to a half above the control carry no call in these data; other NCI protocols may use other cut-offs. Some T/C values are followed by the survivors on the day toxicity was checked, most often the fifth; where none is given, no animal had died by that day.

Tested on: L1210 leukemia ip in BDF1 mice, survival T/C
Experiment: NCI In Vivo Anticancer Drug Screen. Data for tumor model L1210 Leukemia (intraperitoneal) in B6D2F1 (BDF1) mice
Settings: T/C endpoint: mean survival time, higher T/C = longer survival
[1] = dose: 100.0 mg/kg/injection, schedule: Q04DX002 (ip), vehicle: saline with Tween-80
[2] = dose: 200.0 mg/kg/injection, schedule: Q04DX002 (ip), vehicle: saline with Tween-80
[3] = dose: 400.0 mg/kg/injection, schedule: Q04DX002 (ip), vehicle: saline with Tween-80
[4] = dose: 400.0 mg/kg/injection, schedule: Q01DX009 (ip), vehicle: saline with Tween-80
[5] = dose: 200.0 mg/kg/injection, schedule: Q01DX001 (ip), vehicle: carboxymethylcellulose (CMC)
[6] = dose: 300.0 mg/kg/injection, schedule: Q01DX001 (ip), vehicle: carboxymethylcellulose (CMC)
[7] = dose: 400.0 mg/kg/injection, schedule: Q01DX001 (ip), vehicle: carboxymethylcellulose (CMC)
[8] = dose: 200.0 mg/kg/injection, schedule: Q04DX003 (ip), vehicle: saline with Tween-80
[9] = dose: 400.0 mg/kg/injection, schedule: Q04DX003 (ip), vehicle: saline with Tween-80
[10] = dose: 300.0 mg/kg/injection, schedule: Q01DX001 (ip), vehicle: saline
[11] = dose: 200.0 mg/kg/injection, schedule: Q01DX009 (ip), vehicle: saline with Tween-80
[12] = dose: 100.0 mg/kg/injection, schedule: Q04DX002 (ip), vehicle: Klucel (hydroxypropylcellulose) (HPC)

CC(C)[CH2][Sn](=[O])[CH2]C(C)C
survivor count (dose: 25.0 mg/kg/injection, schedule: Q04DX002 (ip), vehicle: saline with Tween-80): 0 of 3 | survivor count [1]: 0 of 3 | survivor count [2]: 0 of 3 | survivor count [3]: 0 of 3

CCN(/N=C/c1ccc([N+](=O)[O-])o1)C(N)=O
survivor count [1]: 1 of 3

N#CCC(=O)N1CCc2ccccc2C1
survivor count [4]: 1 of 3

COc1cc(C=Nc2ccc(Cl)cc2)ccc1N(CCCl)CCCl
survivor count (dose: 60.0 mg/kg/injection, schedule: Q01DX015 (ip), vehicle: carboxymethylcellulose (CMC)): 5 of 6 | T/C (dose: 89.0 mg/kg/injection, schedule: Q01DX001 (ip), vehicle: carboxymethylcellulose (CMC)): 125 % of control [3 of 4 alive] | survivor count (dose: 100.0 mg/kg/injection, schedule: Q01DX015 (ip), vehicle: carboxymethylcellulose (CMC)): 0 of 6 | T/C [5]: 147 % of control | survivor count [6]: 0 of 4 | survivor count [7]: 1 of 4

O=C1[O][Hg][c]2cccc3cccc1c23
survivor count (dose: 20.0 mg/kg/injection, schedule: Q04DX003 (ip), vehicle: saline with Tween-80): 2 of 6 | survivor count (dose: 100.0 mg/kg/injection, schedule: Q04DX003 (ip), vehicle: saline with Tween-80): 0 of 6 | survivor count [8]: 0 of 6 | survivor count [9]: 0 of 6

CN(C)CC1(c2ccccc2)CC[N+](C)(C)C1 (configuration not stated)
survivor count [10]: 1 of 6

COc1cccc2c(Cl)c(CCl)c(C)nc12
survivor count (dose: 100.0 mg/kg/injection, schedule: Q01DX009 (ip), vehicle: saline with Tween-80): 3 of 6 | survivor count [11]: 0 of 6 | survivor count [8]: 3 of 6 | survivor count [9]: 1 of 6

CN1CCC=C(C(=O)O)C1
survivor count [7]: 2 of 4

CNC(=O)CCC(NC(=O)c1ccc(N(C)Cc2cnc3nc(N)nc(N)c3n2)cc1)C(=O)O (configuration not stated)
T/C (dose: 50.0 mg/kg/injection, schedule: Q01DX009 (ip), vehicle: sodium bicarbonate): 132 % of control

c1ccc2c(c1)C[N+](=C1CCCCC1)Cc1ccccc1-2
survivor count (dose: 200.0 mg/kg/injection, schedule: Q04DX003 (ip), vehicle: saline): 0 of 6 | survivor count (dose: 400.0 mg/kg/injection, schedule: Q04DX003 (ip), vehicle: saline): 0 of 6

CCCC(SCC(=O)O)SCC(=O)O
survivor count (dose: 400.0 mg/kg/injection, schedule: Q01DX009 (ip), vehicle: saline): 1 of 3

Cc1ccc(C(=O)NS(=O)(=O)c2ccc(C)cc2)cc1
survivor count (dose: 400.0 mg/kg/injection, schedule: Q01DX009 (ip), vehicle: Klucel (hydroxypropylcellulose) (HPC)): 0 of 6

O=[N+]([O-])OCc1c(Cl)nc(Cl)c(Cl)c1Cl
survivor count (dose: 80.0 mg/kg/injection, schedule: Q01DX009 (ip), vehicle: Klucel (hydroxypropylcellulose) (HPC)): 2 of 6 | survivor count (dose: 400.0 mg/kg/injection, schedule: Q04DX003 (ip), vehicle: Klucel (hydroxypropylcellulose) (HPC)): 0 of 6

NC(=S)N/N=C1/CCc2ccccc21
survivor count [5]: 0 of 4 | survivor count [7]: 0 of 4

Cn1nc(NN)c2cccnc21
survivor count (dose: 300.0 mg/kg/injection, schedule: Q01DX001 (ip), vehicle: other): 0 of 6

NCCCS
survivor count [10]: 2 of 6

CC1(C)CN1P(=O)(Oc1ccccc1)N1CC1(C)C (configuration not stated)
T/C (dose: 100.0 mg/kg/injection, schedule: Q01DX001 (ip), vehicle: carboxymethylcellulose (CMC)): 126 % of control | T/C (dose: 133.0 mg/kg/injection, schedule: Q01DX001 (ip), vehicle: carboxymethylcellulose (CMC)): 134 % of control | T/C [5]: 132 and 142 % of control [5 of 6 alive] | survivor count [6]: 0 of 6 | survivor count [7]: 0 of 6

CC1(C)CC(=O)C2=C(C1)Nc1ccc(Cl)cc1NC2c1ccccc1 (configuration not stated)
T/C [12]: 127 % of control

C1=C(c2ccccc2)CC(/C=C/c2ccccc2)(c2ccccc2)C1c1ccccc1 (configuration not stated)
survivor count [11]: 6 of 6 | survivor count [4]: 6 of 6

CC(=O)NNc1nc(C)cs1
survivor count [8]: 2 of 6 | survivor count [9]: 0 of 6

CN=C(c1ccc(NC(=O)c2cc(C(=O)Nc3ccc(C(=NC)N(C)C)cc3)cc([N+](=O)[O-])c2)cc1)N(C)C
survivor count (dose: 15.0 mg/kg/injection, schedule: Q01DX Z (ip), vehicle: saline): 0 of 6 and 2 of 6 | survivor count (dose: 30.0 mg/kg/injection, schedule: Q01DX Z (ip), vehicle: saline): 0 of 6 | survivor count (dose: 60.0 mg/kg/injection, schedule: Q01DX Z (ip), vehicle: saline): 0 of 6 | survivor count (dose: 120.0 mg/kg/injection, schedule: Q01DX Z (ip), vehicle: saline): 0 of 6

C/C=C\c1ccc(OCCOC(=O)Nc2ccccc2C(F)(F)F)c(OC)c1
survivor count (dose: 25.0 mg/kg/injection, schedule: Q01DX009 (ip), vehicle: Klucel (hydroxypropylcellulose) (HPC)): 3 of 3 | survivor count (dose: 50.0 mg/kg/injection, schedule: Q01DX009 (ip), vehicle: Klucel (hydroxypropylcellulose) (HPC)): 3 of 3 | survivor count (dose: 100.0 mg/kg/injection, schedule: Q01DX009 (ip), vehicle: Klucel (hydroxypropylcellulose) (HPC)): 3 of 3

Cc1cc(-c2ccc([N+](=O)[O-])cc2)cn1-c1ccccc1
survivor count [2]: 3 of 3

C[C@H]1/C(=C/C(=O)OCCN(C)C)CC[C@H]2[C@H]1C(=O)C[C@H]1C(C)(C)[C@@H](O)CC[C@]21C
survivor count (dose: 40.0 mg/kg/injection, schedule: Q01DX001 (ip), vehicle: other): 0 of 6 | survivor count (dose: 80.0 mg/kg/injection, schedule: Q01DX001 (ip), vehicle: other): 0 of 6 | survivor count (dose: 100.0 mg/kg/injection, schedule: Q01DX001 (ip), vehicle: other): 0 of 6 | survivor count (dose: 200.0 mg/kg/injection, schedule: Q01DX001 (ip), vehicle: other): 0 of 6 | survivor count (dose: 400.0 mg/kg/injection, schedule: Q01DX001 (ip), vehicle: other): 0 of 6

CNC(=N)c1ccc(NC(=N)c2ccc(NC(=N)c3ccc(NC(=O)Nc4ccc(C(=N)NC)cc4)cc3)cc2)cc1
T/C (dose: 3.75 mg/kg/injection, schedule: Q01DX015 (ip), vehicle: water): 138 % of control | T/C (dose: 10.0 mg/kg/injection, schedule: Q01DX001 (ip), vehicle: water): 138 % of control | T/C (dose: 10.0 mg/kg/injection, schedule: Q01DX015 (sc), vehicle: water): 148 % of control | T/C (dose: 15.0 mg/kg/injection, schedule: Q01DX015 (ip), vehicle: water): 141 % of control | T/C (dose: 25.0 mg/kg/injection, schedule: Q01DX001 (ip), vehicle: water): 145 % of control [5 of 6 alive] | survivor count (dose: 50.0 mg/kg/injection, schedule: Q01DX001 (ip), vehicle: water): 0 of 6 | survivor count (dose: 100.0 mg/kg/injection, schedule: Q01DX001 (ip), vehicle: water): 0 of 6

CC1=CC(=O)CC(c2ccc(N(C)C)cc2)C1 (configuration not stated)
survivor count (dose: 160.0 mg/kg/injection, schedule: Q04DX002 (ip), vehicle: saline with Tween-80): 3 of 3 | survivor count [3]: 3 of 3

CN(CCC(C#N)(CCC#N)c1ccccc1)Cc1ccccc1 (configuration not stated)
survivor count [10]: 3 of 6

CC(C)CC(N)C(=O)CCl (configuration not stated)
survivor count [12]: 2 of 3
